Drawing on PMC7910915, this text covers binding for two substances.

Results are given in words; binding and its absence hold for the method and conditions named. Binding seen in cells or lysates may run through a third protein.

For test [1], the target named is HA-tagged RuV capsidΔB (rubella virus) (UniProt P08563). As to the kind of experiment: co-IP; HEK293T cells co-transfected with Flag-tagged and HA-tagged capsid plasmids (1 μg each), lysed 48 hpt in IP lysis buffer (20 mM Tris, 100 mM NaCl, 0.05% n-dodecyl β-D-maltoside); IP with M2 anti-Flag and protein-A/G agarose at 4 °C for 12 h; Western blotting.
Test [2] concerns the target HA-tagged RuV capsid R169A/D171A (rubella virus) (UniProt P08563). The description is as above.

Consider “HA-tagged RuV capsidΔB (from UniProt P08563 1-300)”, for which, in test [1], the binding result is reported as “no binding”.

As to “HA-tagged RuV capsid R169A/D171A (from UniProt P08563 1-300)”, in test [2], the binding entry is “no binding”.
